These results are taken from article PMC12098889, “Structural insight into PIF6-mediated red light signal transduction of plant phytochrome B” (Cell Discovery, 2025).

The exact form of at least one protein or probe is not confirmed. Weaker means in comparison with the reference protein, sequence or condition of that experiment. Tags and fusion partners may be left off the protein sequences shown. At least one verdict rests on a figure or table, not on a statement of the authors.

The data set deals with T1, PIF6αΔC (PIF6ΔC) (Arabidopsis) (UniProt Q8L5W7).
T1 sequence (looked up): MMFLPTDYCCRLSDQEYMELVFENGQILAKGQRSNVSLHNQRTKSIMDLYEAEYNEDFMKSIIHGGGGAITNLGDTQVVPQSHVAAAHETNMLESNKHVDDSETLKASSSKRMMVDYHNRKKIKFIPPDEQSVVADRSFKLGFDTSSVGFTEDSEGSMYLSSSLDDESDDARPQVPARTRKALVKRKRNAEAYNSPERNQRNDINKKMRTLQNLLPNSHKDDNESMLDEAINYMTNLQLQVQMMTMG
Description: EMSA. As to conditions: EMSA: 20 mM HEPES pH 7.8, 75 mM KCl, 5 mM MgCl2, 5 mM DTT, 0.5 mg/mL BSA, 10% glycerol, 200 ng/mL heparin, on ice 60-90 min, 15 nM probe, 6% native gel, recombinant protein, residues 1-247, label: 5' FAM.

Setting [1] is: phyB Y276H,Q109A 0.75-6.0 uM, little influence.

As to “GGCCGAGGTGAGTAGGACACGTGGACACGTCTTCCGAA (double strand) [G-wt]”, the binding result is “binds” (no phyB, 0.375-3.0 uM protein); “binds” (phyB (1-1172) in the dark (Pr), 0.75-6.0 uM, little effect); “binds more weakly” (phyB (1-1172) under red light (Pfr), 0.75-6.0 uM, part of probe retained in well); “binds” under setting [1].

Regarding “ATCAACACAGAGAAACCACCTGTTTGTTCAAGATCAAA (double strand) [FT-E Box4]”, the binding result is recorded as “binds” (no phyB, 0.375-3.0 uM protein) and “binds” under setting [1].

Take “AATAGGTGACTATTCTCAAATGTCCTGGTTCTATCTAA (double strand) [FT-E Box2]”: the binding result was “binds” (no phyB, 0.375-3.0 uM protein) and “binds” under setting [1].

Turning to “AAGAAGAGAAATAAAACAATTGATTTGGTTTATATTAT (double strand) [FT-E Box1]”, the binding result is, setting by setting: (no phyB, 0.375-3.0 uM protein) “binds”; under setting [1], “binds”.

Take “AAAAATTAGTGGCTACCAAGTGGGAGATATAATTTGGA (double strand) [FT-E Box3]”: the binding result (no phyB, 0.375-3.0 uM protein) was “binds” and the binding result under setting [1] was “binds”.
